Measurements: article PMC5253704
These are yes or no findings as the source states them, for the method shown. For part of these data: In cells and extracts the contact can be indirect. Some results given as binding are weak or reduced against the parent protein; the word gives no strength. Values belong to the molecule of their own block, whether it stands above or below them.

Sequences of proteins named here, by UniProt entry; tags and fusion partners are left off. Residues count along the entry.
UniProt P09038, residues 143-288: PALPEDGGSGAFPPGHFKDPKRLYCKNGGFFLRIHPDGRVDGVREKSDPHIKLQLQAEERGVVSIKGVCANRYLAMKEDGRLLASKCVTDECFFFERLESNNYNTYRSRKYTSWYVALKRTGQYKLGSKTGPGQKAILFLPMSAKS
UniProt O88207, residues 37-1838: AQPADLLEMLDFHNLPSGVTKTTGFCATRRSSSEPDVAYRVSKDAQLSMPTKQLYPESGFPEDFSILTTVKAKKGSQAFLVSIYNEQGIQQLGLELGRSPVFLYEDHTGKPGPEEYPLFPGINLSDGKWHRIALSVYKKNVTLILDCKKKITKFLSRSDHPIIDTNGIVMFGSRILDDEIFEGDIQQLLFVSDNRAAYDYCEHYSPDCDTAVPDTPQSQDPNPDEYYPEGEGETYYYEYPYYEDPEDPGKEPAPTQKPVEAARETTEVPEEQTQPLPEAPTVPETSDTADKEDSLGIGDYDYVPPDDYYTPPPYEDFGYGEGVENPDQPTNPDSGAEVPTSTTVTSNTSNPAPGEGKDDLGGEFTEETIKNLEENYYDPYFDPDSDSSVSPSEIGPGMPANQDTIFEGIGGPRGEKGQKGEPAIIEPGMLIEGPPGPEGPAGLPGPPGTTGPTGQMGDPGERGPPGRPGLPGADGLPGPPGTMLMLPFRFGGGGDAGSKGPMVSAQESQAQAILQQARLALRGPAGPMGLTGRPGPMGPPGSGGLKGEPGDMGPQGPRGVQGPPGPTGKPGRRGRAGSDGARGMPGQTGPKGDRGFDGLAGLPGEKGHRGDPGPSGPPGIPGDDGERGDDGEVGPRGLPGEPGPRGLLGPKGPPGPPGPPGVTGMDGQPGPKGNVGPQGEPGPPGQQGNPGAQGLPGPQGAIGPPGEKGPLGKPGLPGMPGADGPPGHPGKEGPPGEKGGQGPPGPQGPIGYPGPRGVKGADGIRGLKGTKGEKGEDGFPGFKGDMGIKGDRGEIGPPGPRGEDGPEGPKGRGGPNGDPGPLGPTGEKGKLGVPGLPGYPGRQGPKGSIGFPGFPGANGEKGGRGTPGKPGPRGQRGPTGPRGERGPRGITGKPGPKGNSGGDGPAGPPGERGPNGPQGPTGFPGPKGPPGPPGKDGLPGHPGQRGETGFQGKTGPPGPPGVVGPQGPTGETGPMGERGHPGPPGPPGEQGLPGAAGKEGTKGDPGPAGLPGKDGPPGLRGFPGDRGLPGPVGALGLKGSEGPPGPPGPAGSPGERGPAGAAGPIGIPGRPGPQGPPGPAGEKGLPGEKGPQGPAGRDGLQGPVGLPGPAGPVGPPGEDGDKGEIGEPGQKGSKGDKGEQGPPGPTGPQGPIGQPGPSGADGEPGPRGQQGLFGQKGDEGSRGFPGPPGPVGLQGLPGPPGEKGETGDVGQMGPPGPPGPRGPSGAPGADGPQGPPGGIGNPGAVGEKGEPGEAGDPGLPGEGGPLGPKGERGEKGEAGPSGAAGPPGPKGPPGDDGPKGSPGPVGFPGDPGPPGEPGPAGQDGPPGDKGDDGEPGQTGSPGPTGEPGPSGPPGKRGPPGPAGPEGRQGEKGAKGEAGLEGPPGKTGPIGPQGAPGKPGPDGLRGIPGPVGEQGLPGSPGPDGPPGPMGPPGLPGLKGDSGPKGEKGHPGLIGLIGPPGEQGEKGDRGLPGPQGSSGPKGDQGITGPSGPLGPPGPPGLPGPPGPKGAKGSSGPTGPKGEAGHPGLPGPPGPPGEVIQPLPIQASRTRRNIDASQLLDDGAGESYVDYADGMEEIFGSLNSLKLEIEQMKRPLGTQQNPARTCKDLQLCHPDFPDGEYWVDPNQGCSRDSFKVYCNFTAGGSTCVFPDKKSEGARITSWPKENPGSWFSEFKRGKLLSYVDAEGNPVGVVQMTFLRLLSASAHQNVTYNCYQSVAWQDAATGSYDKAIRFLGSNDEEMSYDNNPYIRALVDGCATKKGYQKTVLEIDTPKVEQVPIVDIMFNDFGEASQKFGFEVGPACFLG

How the values were obtained:
[1] = target: T1, glypican-1, endogenous in WT/PyMT mouse mammary tumours (mouse (endogenous in MMTV-PyMT tumours)) (UniProt Q9QZF2); test: co-IP; immunoprecipitation of endogenous proteins from WT/PyMT (and KO/PyMT) tumour extracts in RIPA buffer, 0.3 mg protein per ml, 900 μl; protein G or A agarose, overnight 4 °C; immunoblot
T1 sequence: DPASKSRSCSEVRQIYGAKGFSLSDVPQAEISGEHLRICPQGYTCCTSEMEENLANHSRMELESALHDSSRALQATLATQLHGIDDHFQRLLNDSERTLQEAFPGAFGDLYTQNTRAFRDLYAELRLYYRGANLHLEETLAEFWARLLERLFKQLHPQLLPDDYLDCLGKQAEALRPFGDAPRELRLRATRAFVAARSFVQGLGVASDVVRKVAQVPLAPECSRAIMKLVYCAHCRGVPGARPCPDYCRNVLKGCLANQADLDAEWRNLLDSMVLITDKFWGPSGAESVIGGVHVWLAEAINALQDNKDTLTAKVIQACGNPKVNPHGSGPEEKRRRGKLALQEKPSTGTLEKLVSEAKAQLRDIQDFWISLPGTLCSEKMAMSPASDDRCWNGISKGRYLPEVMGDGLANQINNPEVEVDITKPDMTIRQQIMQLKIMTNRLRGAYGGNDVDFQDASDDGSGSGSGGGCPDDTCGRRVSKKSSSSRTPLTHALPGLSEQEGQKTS

[2] = target: T2, recombinant glypican-1 (R&D Systems) (UniProt P35052); test: co-IP; combinations of 50 ng GPC1, 100 ng α3(V)-NTD and 15 ng FGF2 preincubated 3 h in buffer A (20 mM Tris-HCl pH 7.5, 150 mM NaCl, 1 mM ZnCl2, 1 mM CaCl2, 1 mM MgCl2, 0.1% Triton X-100, 1 μg/ml BSA), antibody 2 h, protein G or A agarose overnight 4 °C; immunoblot; both purified
T2 sequence: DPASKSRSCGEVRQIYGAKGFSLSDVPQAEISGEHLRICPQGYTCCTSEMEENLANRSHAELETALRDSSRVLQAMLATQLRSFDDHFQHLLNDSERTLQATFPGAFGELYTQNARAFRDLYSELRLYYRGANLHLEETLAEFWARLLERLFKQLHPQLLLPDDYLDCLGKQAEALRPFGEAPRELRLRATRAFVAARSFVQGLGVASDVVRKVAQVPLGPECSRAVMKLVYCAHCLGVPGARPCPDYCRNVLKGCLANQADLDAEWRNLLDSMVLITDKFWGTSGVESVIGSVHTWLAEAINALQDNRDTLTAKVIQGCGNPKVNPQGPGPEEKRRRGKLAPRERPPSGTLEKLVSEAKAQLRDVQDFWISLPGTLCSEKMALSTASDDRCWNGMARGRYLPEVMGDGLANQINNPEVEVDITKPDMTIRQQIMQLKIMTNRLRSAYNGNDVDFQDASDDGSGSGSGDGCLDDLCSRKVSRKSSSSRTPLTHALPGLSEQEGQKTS

recombinant FGF2 = recombinant FGF2 (UniProt P09038); test: as above

binding [1]: binds
Molecule: α1(V) collagen chain, endogenous in WT/PyMT mouse mammary tumours (from UniProt O88207 37-1838)

binding [2]: binds
Molecule: recombinant FGF2 (from UniProt P09038 143-288) (ligand)

binding (recombinant FGF2): binds
B1: recombinant glypican-1 (R&D Systems) (protein, UniProt P35052 24-530)
chain: T2 sequence
